Laboratory results: PubChem BioAssay AID504744 (Drosophila RNAi Screening Center, 2011)

Screen: 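Find genes whose loss alters insulin-driven dAkt phosphorylation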 (primary screen)
System: Drosophila Kc167 cells
Reagent: long dsRNA against Drosophila genes, 250 ng dsRNA per well of a 384-well plate
Duration: 3 days of knock-down, then overnight serum-free starvation before stimulation
Conditions: bovine insulin at 387 nM for 10 minutes after 12 h without serum
Measured: 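Per-well phospho-dAkt level from an in-cell fluorescent antibody stain, divided by a DNA-dye signal; log2 residuals turned into z-scores that take cell number into account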
Hit rule: 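Hit in the insulin screen when the two-replicate mean z-score is more extreme than plus or minus 2.5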
In all, the deposit lists about 23,000 reagents; this is a random part of those with a known target gene and a result. Of all reagents, 98 (0.43%) got an active call. 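Only hit calls are given; the phospho-dAkt signals, z-scores and hit direction were not deposited.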 Reagents against one gene are numbered here. A plus sign joins genes that one reagent is predicted to hit. No sequences are given here.

With knock-down of CG2218, the record shows inactive.
Against Ama, the values are inactive.
After knock-down of CG5255 the results were inactive.
Against bgm, the values are inactive.
Silencing of KdelR came out at: inactive.
Psn scored inactive.
With knock-down of spdo, the record shows inactive.
After knock-down of kek5 the results were inactive.
HtrA2 gave inactive.
After knock-down of kel, the screen gave inactive.
For CG10163, the entry reads inactive.
With knock-down of cu #1, the screen gave inactive.
Depletion of cu #2 came out at: inactive.
Silencing of ix resulted in: inactive.
CR42532 scored inactive.
Knock-down of CG10919 gave: inactive.
Prosbeta6 showed inactive.
With knock-down of CG32262, the record shows inactive.
CG9270 gave inactive.
CG3600 (retired record) gave inactive.
After knock-down of Cyp28d1 #1, the record shows inactive.
For Cyp28d1 #2 the deposit lists inactive.
Depletion of Fbl6 gave: inactive.
Depletion of CG32021 (retired record) came out at: inactive.
Against sut3 the deposit lists inactive.
After knock-down of CG12460 (retired record) the results were inactive.
Against Arc1 the deposit lists inactive.
CG7841 gave inactive.
Silencing of CG17768 + LSm-4 gave: inactive.
After knock-down of Eo the results were inactive.
CG34324 scored inactive.
Axs showed inactive.
PPYR1 scored inactive.

Individual results from above.
Entry of CG10919 under “Outcome”: inactive
Entry of Ama in “Outcome”: inactive
Entry for Axs under “Outcome”: inactive

The results go on.
Chs2 gave inactive.
CG34210 showed inactive.
Knock-down of Iru gave: inactive.
Knock-down of Tig resulted in: inactive.
Depletion of DCTN3-p24 resulted in: inactive.
For CG13587, the entry reads inactive.
After knock-down of Gr2a, the record shows inactive.
Against CNT1 + CG13742 the deposit lists inactive.
Silencing of Naus #1 gave: inactive.
With knock-down of Naus #2 the results were inactive.
After knock-down of CG13679 #1, the screen gave inactive.
CG13679 #2 gave inactive.
With knock-down of ppk30, the screen gave inactive.
Against CR18166 #1, the entry reads inactive.
With knock-down of CR18166 #2, the record shows inactive.
For nxf2 the deposit lists inactive.
CG31883 scored inactive.
Karybeta3 showed inactive.
After knock-down of insc, the record shows inactive.
Ir7g gave inactive.
Against bru3 #1 the deposit lists inactive.
bru3 #2 gave inactive.
Depletion of bru3 #3 came out at: inactive.
Against bru3 #4, the entry reads inactive.
